# Reference: PubChem BioAssay AID1671190 (National Center for Advancing Translational Sciences (NCATS), 2021)
# Sequences of proteins named here, by UniProt entry; tags and fusion partners are left off. A change or cut given only in a name is not applied to a line headed by its entry.
# UniProt P18054: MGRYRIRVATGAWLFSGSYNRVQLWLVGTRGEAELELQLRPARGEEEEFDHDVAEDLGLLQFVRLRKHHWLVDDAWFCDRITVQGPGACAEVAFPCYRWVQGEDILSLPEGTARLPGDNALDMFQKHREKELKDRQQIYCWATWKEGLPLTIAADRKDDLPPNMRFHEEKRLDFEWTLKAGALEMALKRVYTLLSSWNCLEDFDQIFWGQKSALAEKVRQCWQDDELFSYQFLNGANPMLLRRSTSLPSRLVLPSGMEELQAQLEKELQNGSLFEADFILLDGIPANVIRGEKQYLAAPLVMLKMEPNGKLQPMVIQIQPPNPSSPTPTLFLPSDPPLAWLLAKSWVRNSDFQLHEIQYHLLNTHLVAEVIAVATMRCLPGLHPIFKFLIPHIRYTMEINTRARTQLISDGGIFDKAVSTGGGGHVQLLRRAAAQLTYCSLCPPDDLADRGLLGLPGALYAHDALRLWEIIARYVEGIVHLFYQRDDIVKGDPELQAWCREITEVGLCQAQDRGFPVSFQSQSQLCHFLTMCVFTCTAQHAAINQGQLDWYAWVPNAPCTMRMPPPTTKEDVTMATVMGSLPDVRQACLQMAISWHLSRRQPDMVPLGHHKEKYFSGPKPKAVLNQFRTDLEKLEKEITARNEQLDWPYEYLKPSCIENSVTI
# The campaign covered roughly 580,000 compounds. About 6,100 (1.1%) were called active. This list was built around the results that the source calls inconclusive (neither active nor inactive); the mix of calls is not that of the screen. Calls follow the shape of the dose curve; as a rule, active = well fitted inhibition curve with a large enough effect; inconclusive = small, poorly fitted or top-dose-only effect, or another doubt; inactive = no such curve, though single readings can be large or run the other way. Potencies beside an inconclusive call are fits to weak or partial responses and may not hold up.
# Molecular target: Polyunsaturated fatty acid lipoxygenase ALOX12 (Homo sapiens) (UniProt P18054)
# Assay: Primary qHTS assay for inhibitors of human arachidonate 12S-lipoxygenase (ALOX12): Round 2
# Conditions: purified 12hLO, xylenol orange hydroperoxide absorbance; activity change, negative = inhibition: at 108 µM (top of the series) unless noted
# Outline: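 Purified human 12hLO (150 nM final) in 25 mM Hepes, 0.01% Triton X-100, pH 7.0 was preincubated 15 min at room temperature with compound. Then 40 uM arachidonic acid was added, 30 min. Hydroperoxide was read by Fe-XO absorbance ratio 573/405 nm.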
# % is scaled to controls: 0 for no effect and ±100 for the full control effect; potency is read from the fitted curve at half-maximal effect.
SMILES,Potency,"activity change, negative = inhibition"
Cc1cccc(NC(=O)CN2CCCCCC2)c1,"inconclusive: 3.55 µM [inhibitor, full curve, poor fit]",–
COc1ccc(CN(C)C2CCN(C)CC2)cc1OC,"inconclusive: 0.398 µM [inhibitor, full curve, poor fit]",–
CC1Cc2ccccc2N1C(=O)Cn1c(=O)c2c(ncn2C2CCCC2)n(Cc2ccccc2)c1=O (centres undefined),inactive,–
Cc1ccc(C)c(N2CCN(C(=O)c3cc4c(=O)n(Cc5ccco5)ccc4nc3C)CC2)c1,–,inconclusive: -38.2% [inhibitor]
Cc1n[nH]c(C)c1S(=O)(=O)N(CC(=O)NCc1ccc(F)cc1)c1ccc(C(C)C)cc1,"inconclusive: 112 µM [inhibitor, single point]",–
C(=N\n1c2ccccc2c2ccccc21)/c1ccccc1,inactive,–
COCCN(CCOC)S(=O)(=O)c1ccc(C(=O)Nc2ccc([N+](=O)[O-])cc2OC)cc1,inactive,–
CCOc1ccc(CNC(=O)CCCn2nc(C)c3sc4ccccc4c3c2=O)cc1,inactive,–
CCCCCCCCN1C(=O)[C@H](CC(=O)N2CCOCC2)C[C@@]2(C(=O)OC)CC(C)(C)CC=C12,"inconclusive: 28.2 µM [inhibitor, single point]",–
COC(=O)c1cc(S(=O)(=O)NCC2CCN(Cc3ccc(C)cc3)CC2)cn1C,"inconclusive: 70.8 µM [inhibitor, partial curve, poor fit]",–
CCc1ccc(NC(=O)Nc2ccc3sc(NC(C)=O)nc3c2)cc1,active: 7.08 µM,–
COCCCN1C(=O)C(=O)/C(=C(/O)c2ccccc2)C1c1ccc(N(C)C)cc1 (centres undefined),"inconclusive: 35.5 µM [inhibitor, partial curve, poor fit]",–
C=CCn1c(=O)c2ccccc2n2c(SCc3nc4ccccc4s3)nnc12,inactive,–
CC(=O)c1sc(C(=O)O)c(-c2ccco2)c1-c1ccco1,"inconclusive: 50.1 µM [inhibitor, partial curve, poor fit]",–
CC(C)(CNC(=O)c1sc2cc(Cl)ccc2c1Cl)N1CCOCC1,inactive,–
O=c1oc(-c2ccccc2)cc(-c2ccccc2)c1-c1ccccc1,"inconclusive: 10 µM [inhibitor, full curve, poor fit]",–
S=c1[nH]nc(-c2ccco2)n1Cc1ccccc1,"inconclusive: 25.1 µM [inhibitor, partial curve, poor fit]",–
CCCCCCOCCOc1ccccc1OCCOCCCCCC,"inconclusive: 35.5 µM [inhibitor, partial curve, poor fit]",–
Cc1cccc(NS(=O)(=O)c2ccc3c(c2)[C@H]2C=CC[C@H]2[C@@H](c2ccc(F)cc2)N3)c1,"inconclusive: 112 µM [inhibitor, single point]",–
CC(=O)Nc1ccc2sc(NC(=O)CN3CCOCC3)nc2c1,"inconclusive: 31.6 µM [inhibitor, partial curve]",–
COc1ccc(OC)c(NC(=O)COC(=O)c2sccc2C)c1,inactive,–
Cc1cc(-c2csc(N3CCN(C)CC3)n2)c(C)n1NC(=O)c1nn(C)c(=O)c2ccccc12,"inconclusive: 56.2 µM [inhibitor, partial curve, poor fit]",–

SMILES,Potency,"activity change, negative = inhibition"
CC1Sc2ccc(S(=O)(=O)N3CCC(C(=O)NCC(C)c4ccccc4)CC3)cc2NC1=O (centres undefined),inactive,–
CCCN(CCC)c1nc2ccccc2nc1C(C#N)C(=O)OC(C)COC (centres undefined),inactive,–
Cc1ccc(C)c(NC(=O)Cn2c(=O)nc(-c3ccccc3)c3ccccc32)c1,"inconclusive: 126 µM [inhibitor, partial curve, poor fit]",–
COc1ccc(Cl)cc1NC(=O)c1cc(=O)c2cc(C)ccc2o1,inactive,–
CCN(CC)CCOc1cccc(C(C)C)c1,"inconclusive: 0.708 µM [inhibitor, full curve, poor fit]",–
Cc1ccc(C(=O)N2CCC3(CC2)NCCc2[nH]cnc23)cc1,"inconclusive: 31.6 µM [inhibitor, partial curve, poor fit]",–
Cc1noc(C)c1-c1ccc2ncnc(N(C)C)c2c1,"inconclusive: 5.62 µM [inhibitor, partial curve, poor fit]",–
Cc1ccc(CNc2ccc([N+](=O)[O-])cc2C(N)=O)cc1,"inconclusive: 44.7 µM [inhibitor, partial curve, poor fit]",–
O=[N+]([O-])c1ccc(N2CCN(c3ccc(O)cc3)CC2)cn1,"inconclusive: 25.1 µM [inhibitor, partial curve, poor fit]",–
COC(=O)c1c(C)nc(C)c(C(=O)OC)c1-c1ccsc1,"inconclusive: 56.2 µM [inhibitor, single point]",–
Cc1csc(NC(=O)/C=C/c2ccc3c(c2)OCO3)n1,inactive,–
COc1ccc(CNC(=O)Cn2c(-c3cccc(Cl)c3)nc(C)c(CCO)c2=O)cc1OC,inactive,–
CCN(CC)S(=O)(=O)c1ccc(N2CCOCC2)c(NC(=O)COc2ccccc2)c1,inactive,–
COc1cc(SC)ccc1C(=O)NCCOc1c(C)cc(C)cc1C,"inconclusive: 158 µM [inhibitor, partial curve, poor fit]",–
CCCCC(=O)Nc1cccc(NC(=O)c2cccc3c(Br)cccc23)c1,inactive,–
COc1ccc(C(=O)NC(=S)N2CCNC(=O)C2CC(=O)OC(C)C)cc1 (centres undefined),"inconclusive: 2.51 µM [inhibitor, partial curve, poor fit]",–
O=[N+]([O-])c1cc(Br)cc(C=Nc2ccc3c(c2)OCO3)c1O,active: 35.5 µM,–
N#Cc1cccc(NC(=O)CCc2cccs2)c1,inactive,–
COc1cc(C(=O)N2CCN(CC(O)COc3ccccc3)CC2)cc(OC)c1OC (centres undefined),"inconclusive: 89.1 µM [inhibitor, single point]",–
Oc1ccc(C2=CSC3=NCCN23)cc1O,"inconclusive: 3.55 µM [inhibitor, full curve, poor fit]",–
CC(C)(CC(=O)O)CC(=O)Nc1ccc(Cl)c(Cl)c1,"inconclusive: 141 µM [inhibitor, single point]",–
CCOC(=O)c1ccc(NC(=O)CC2Sc3ccc(C(F)(F)F)cc3NC2=O)cc1 (centres undefined),"inconclusive: 141 µM [inhibitor, partial curve, poor fit]",–

# Ordered by length of the SMILES (ascending): twelve of the compounds above.
SMILES,Potency,"activity change, negative = inhibition"
Oc1ccc(C2=CSC3=NCCN23)cc1O,"inconclusive: 3.55 µM [inhibitor, full curve, poor fit]",–
Cc1noc(C)c1-c1ccc2ncnc(N(C)C)c2c1,"inconclusive: 5.62 µM [inhibitor, partial curve, poor fit]",–
Cc1csc(NC(=O)/C=C/c2ccc3c(c2)OCO3)n1,inactive,–
CC(C)(CC(=O)O)CC(=O)Nc1ccc(Cl)c(Cl)c1,"inconclusive: 141 µM [inhibitor, single point]",–
Cc1ccc(C(=O)N2CCC3(CC2)NCCc2[nH]cnc23)cc1,"inconclusive: 31.6 µM [inhibitor, partial curve, poor fit]",–
CCCN(CCC)c1nc2ccccc2nc1C(C#N)C(=O)OC(C)COC (centres undefined),inactive,–
O=[N+]([O-])c1ccc(N2CCN(c3ccc(O)cc3)CC2)cn1,"inconclusive: 25.1 µM [inhibitor, partial curve, poor fit]",–
CCCCC(=O)Nc1cccc(NC(=O)c2cccc3c(Br)cccc23)c1,inactive,–
COc1ccc(C(=O)NC(=S)N2CCNC(=O)C2CC(=O)OC(C)C)cc1 (centres undefined),"inconclusive: 2.51 µM [inhibitor, partial curve, poor fit]",–
COc1cc(C(=O)N2CCN(CC(O)COc3ccccc3)CC2)cc(OC)c1OC (centres undefined),"inconclusive: 89.1 µM [inhibitor, single point]",–
Cc1ccc(C)c(NC(=O)Cn2c(=O)nc(-c3ccccc3)c3ccccc32)c1,"inconclusive: 126 µM [inhibitor, partial curve, poor fit]",–
COc1ccc(CNC(=O)Cn2c(-c3cccc(Cl)c3)nc(C)c(CCO)c2=O)cc1OC,inactive,–
